## Screening data, single-dose tests

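Assay of Toxoplasma gondii numbers, read through their beta-galactosidase reporter with a colour substrate. Compounds at 10 µM. Higher reads as fewer parasites (inferred from which compounds were picked for retests). Size under these conditions: about 67,000 compounds, about 260 of them at 50% or above in at least one test.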

Results are given as percent effect. The controls that fix the scale are not given in the record; negative values are as filed. The compounds are a random part of those screened.

Compound | percent effect
COc1cccc(-c2n[nH]c3c2CN(C(=O)c2ccncc2)CC3)c1 | 13.87%
CN(C)c1ccc(C(=O)N2C[C@@H](CN3CCCCC3)[C@@H](CO)C2)cc1 | 2.703%
COc1ccc(-c2cc(C3CC3)c(C#N)c(N)n2)cc1F | 25.5%
CCN1CCN(c2nsc(-c3cccnc3)c2C#N)CC1 | 7.191%
CSCCC(=O)N1CCC(Oc2cc(C)ccc2F)(C(=O)O)CC1 | -6.339%
NCCn1nc(C2CCN(C(=O)CC3CCCCC3)C2)c2nccnc21 (stereo not drawn) | 2.274%
CCc1n[nH]c(C2CN(Cc3nccn3CC)CCO2)n1 (stereo not drawn) | 3.249%
O=c1[nH]c2ccccc2c2c1CCO2 | 15.45%
COC1CN(CCO)S(=O)(=O)c2ccccc21 (stereo not drawn) | -23.67%
N#Cc1cc(S(N)(=O)=O)ccc1NC1CCc2cc(Cl)ccc21 (stereo not drawn) | 3.69%
COc1ccc(C2=Nn3c(CCCN)nnc3-c3ccccc3C2)cc1 | -7.318%
Cn1ccc2cc(C(=O)N3CCOCC3)ccc21 | -7.571%
COCCNC(=O)c1cccnc1Oc1ccc(Cl)cc1 | 4.813%
CN1C(=O)C2(CCN(Cc3nccn3C)CC2)c2ccccc21.O=C(O)C(F)(F)F | -1.427%
Cc1csc(CNC(=O)NC2CCN(c3ncccn3)CC2)n1 | 13.62%
CS(=O)(=O)NC1CCN(C(=O)NCc2cccnc2)CC1 | 0.5616%
CC(=O)N1CCc2ccccc2C1CC(=O)NCc1nnc(C)o1 (stereo not drawn) | -6.792%
c1csc(CN2CCCN(c3ncnc4[nH]ccc34)CC2)c1 | -26.14%
Cc1[nH]/c(=N\C(=O)c2csc(NCC(C)C)n2)sc1C | 92.95%
N#Cc1ccc(CN2CCCC2Cn2cccn2)c(F)c1 (stereo not drawn) | -9.668%
CC(C)COCC1CN(Cc2ccsc2)Cc2ncn(C)c21 (stereo not drawn) | 11.68%
[H][C@@]12CCCO[C@]1([H])[C@H](NC(=O)N(C)C)CN2S(C)(=O)=O | 4.346%
NC(=O)c1csc(N2C[C@@H](CN3CCOCC3)[C@@H](CO)C2)n1 | -3.82%
O=C(O)C(F)(F)F.O=C(O)C(F)(F)F.[H][C@@]12CN(Cc3ccncc3)C[C@]1([H])[C@@H]2CC(=O)N1CCCC1 | -5.891%
NC(=O)C1CCN(c2ncc(-c3cnccn3)c([C@H]3CCCO3)n2)CC1 | -11.25%
[H][C@@]12CCN(Cc3ccc(C)cc3)C[C@]1([H])[C@H](c1nc(C)no1)CCO2 | 4.142%
c1[nH]c(CC2CCCC2)nc1CN1CCCC2(CCOC2)C1 (stereo not drawn) | 8.895%
Cc1nc(CN2C(=O)CCC23CCN(c2ncccn2)CC3)cs1.O=C(O)C(F)(F)F | 5.128%
COc1ccc(N2CCN(C(=O)COc3c(C)occc3=O)CC2)cc1 | -7.931%
COc1ccc(-c2csc(N)c2C#N)cc1OC | 1.435%
CNC(=O)C(C)CN(C)C(=O)Nc1ccc(Cl)cc1-n1cccc1 (stereo not drawn) | -10.67%
O=C(NCCc1cnccn1)c1cccc(S(=O)(=O)NC2CCOC2)c1 (stereo not drawn) | 5.118%
CC(C)(C)OC(=O)N1CSC[C@@H]1C(=O)NCc1ccncc1 | 0%
CS(=O)(=O)N1CCCc2sc(C(=O)NC3CC3)nc21 | 2.028%
Cc1ccc(F)c2c1CCCN2C(=O)Cc1c(C)nn(C)c1C | 3.273%
O=C(O)C(F)(F)F.[H][C@@]12CCN(Cc3ccc(C)o3)C[C@@]1([H])[C@H](C(=O)NC1CC1)CCO2 | -3.389%
O=C(NCC1SCCc2ccccc21)c1cscn1 (stereo not drawn) | -0.5618%
COc1ccc(-c2ccnc3nc(N4CCCC4)[nH]c(=O)c23)cc1OC | -0.6823%
Cc1nccn1CCC(=O)N1CCCN(CCCc2ccccc2)CC1 | -3.606%
CCOCC1CN(C(=O)Cc2ccccn2)Cc2c1cnn2C.O=C(O)C(F)(F)F.O=C(O)C(F)(F)F (stereo not drawn) | -4.048%
Cc1cc(C)c2nc(CNC3CCNC3=O)cc(O)c2c1 (stereo not drawn) | 4.053%
CC(C)(NCC(=O)NCC(F)(F)F)c1ccc2c(c1)OCCO2 | 4.538%
Cc1ccc(C(=O)N2CC[C@H](Oc3cccnc3C)[C@@H](O)CC2)s1 | 10.89%
CCOc1ccc(C(=O)N2CCCC2Cn2cc(C)cn2)cn1 (stereo not drawn) | -3.052%
CN1CCN(C(=O)Cc2csc(-c3ccsc3)n2)C(c2ccccc2)C1 (stereo not drawn) | 5.351%
CN(C)C(C(=O)NCCn1cccc1)c1cccc(F)c1 (stereo not drawn) | 1.379%
Cc1nnc2n1CCN(C(C(=O)N1CCCCC1)c1ccccc1)C2 (stereo not drawn) | 3.991%
CSCC[C@H](N)C(=O)N1CC(Oc2ccccc2C)C1 | 1.935%
CN(CCOc1ccc(Br)cc1)Cc1cscn1 | 0.5682%
CCN1CC(C(=O)NCc2cccc(SC)c2)CC1=O (stereo not drawn) | 8.991%
CC(Cn1cccn1)NC(=O)N1CCN(Cc2cccs2)CC1 (stereo not drawn) | 1.331%
OC(c1cccs1)C1CCN(c2ncccn2)CC1 (stereo not drawn) | 4.646%
O=C(c1ccc2c(c1)OCO2)N1CCCSCC1CN1CCCC1 (stereo not drawn) | -6.874%
CCCC1CCCN(Cc2csc(-c3cnn(C)c3)n2)CC1 (stereo not drawn) | -8.045%
CC(CO)CN(Cc1ccccc1)C(=O)c1csc(CN(C)C)n1 (stereo not drawn) | -40.44%
O=C(O)C(F)(F)F.[H][C@@]12OCCN(C(=O)c3ccc(C)nc3)[C@@]1([H])CC[C@H]2OC | -0.7887%
COc1cc2c(cc1CNC(=O)Cc1cc(C)on1)OC(C)C2 (stereo not drawn) | 10.45%
CC(C)C(C(N)=O)c1cccc(Cl)c1 (stereo not drawn) | -2.615%
Cc1cnn(C2CN(CC(O)Cn3cccn3)C2)c1 (stereo not drawn) | 6.282%
Cc1ncccc1OC1(C(=O)NCCNc2ccccc2)CCNCC1 | 7.04%
CCCn1nnc(NCc2cc(Br)cc(Br)c2OC)n1 | -7.275%
COCCC1COC2(CCN(C(=O)c3ccncc3)CC2)C1.O=C(O)C(F)(F)F (stereo not drawn) | -16.2%
CCc1ncc(C(=O)N2CCCCC2Cn2cccn2)s1 (stereo not drawn) | 5.277%
O=C(O)C(F)(F)F.[H][C@@]12CCN(c3ccc(C)nn3)[C@]1([H])CC[C@@H](C(=O)N1CCCCO1)O2 | 14.81%
O=C(NCC1CC1)C1CCC2(CCN(C(=O)c3cnccn3)CC2)O1 (stereo not drawn) | -23.54%
CC(C)(C)C(=O)NCCC(=O)NS(=O)(=O)c1cccc(C#N)c1 | 2.301%
CC(C)CC(=O)N1CC(=O)c2sc(Nc3ccc(F)cc3F)nc2C1 | -21.71%
Cc1nn(C)c2nc(N3CCCCC3c3nccs3)sc12 (stereo not drawn) | 29.99%
CCCc1n[nH]c(C2CN(CCNS(=O)(=O)CC)CCO2)n1 (stereo not drawn) | -0.1687%
COCCN1C(=O)C2(CCC(C(=O)Nc3ccc(F)cc3)CC2)N=C1C (stereo not drawn) | 1.59%
O=C(c1ccoc1)N1CCC(Nc2cccnn2)CC1 | 2.758%
CC(=O)N1CC(C(=O)NC(C)c2cnn(C)c2C)C1 (stereo not drawn) | 3.083%
CC(C)Oc1ccc(NCc2ccc([S+](C)[O-])cc2)c(F)c1 (stereo not drawn) | -1.011%
Cc1nc(CC(=O)N2CCOC(c3nc(C(C)(C)C)n[nH]3)C2)cs1 (stereo not drawn) | -1.011%
CC(C#N)CSc1ccccc1NCC(=O)Nc1ccccc1 (stereo not drawn) | 2.149%
O=C(O)C(F)(F)F.O=C1CC2(CCN(CC3CC3)C2)CN1c1cccc(F)c1 (stereo not drawn) | 2.073%
[H][C@@]12CCCN1C[C@@H](CCSC)N(Cc1cnn(C=C)c1C)C2 | 3.139%
COc1cc(-n2cc(CCO)cn2)ccc1NC(C)=O | -22.27%
Cc1ccc(-c2nnc(CN3CCn4c(nnc4C4CC4)C3)o2)cc1 | 11.97%
CNC(=O)c1ccc(C2CCCN(C(=O)c3c(C)noc3C)C2)nc1 (stereo not drawn) | -42.73%
CC(C)Cc1nnc2sc(-c3cc(C(C)C)n[nH]3)nn12 | 6.871%
CC(C)NC(=O)N1CCc2onc(C(=O)Nc3cccnc3)c2C1.O=C(O)C(F)(F)F | -34.87%
COCC1c2nnn(CC3CC3)c2CCN1C(=O)c1cccc(F)c1 (stereo not drawn) | 1.648%
CCC1(C)Cc2ccccc2-c2nc(NCCCO)nc(O)c21 (stereo not drawn) | 11.73%
COCCN1CCN(c2cc(OC)ncn2)Cc2ccc(C)nc21 | -4.645%
CCOCc1nc2c(c(N(C)Cc3snnc3C)n1)CCNCC2 | -1.638%
Cn1cc(C(=O)NCc2cn3c(n2)CN(C2CCOCC2)CC3)cn1.O=C(O)C(F)(F)F | 2.915%
[H][C@]12CCC[C@@]1(COCC1CCOCC1)CN(C(=O)c1ccnnc1)C2 | 4.25%
Cc1nc(CN(C)C2CCN(CCCc3ccccc3)C2)no1 (stereo not drawn) | -3.506%
CSc1nccc(-c2cccc(-c3ccn(CC4COCCO4)n3)c2)n1 (stereo not drawn) | 9.519%
O=C(c1cccnc1SCc1ccccc1)N1CCOCC1 | 15.89%
Cn1cc(CN2CCCC3(CCN(C(=O)c4cnccn4)C3)C2)cn1.O=C(O)C(F)(F)F.O=C(O)C(F)(F)F (stereo not drawn) | -6.173%
O=S(=O)(NC1CCCN(c2ncccn2)C1)N1CCCCCC1 (stereo not drawn) | -2.512%
Cc1ccc(NC(=O)CC2Cn3ncnc3NC2=O)cc1C (stereo not drawn) | -1.45%
COc1ccc(CN2CCN(C(C)=O)CC3(CC(=O)N(C)C3)C2)cc1.O=C(O)C(F)(F)F (stereo not drawn) | 4.013%

Once more, the final 7:

{"compound": "Cc1nc(CN(C)C2CCN(CCCc3ccccc3)C2)no1", "stereo": "stereo not drawn", "percent effect": -3.506}
{"compound": "CSc1nccc(-c2cccc(-c3ccn(CC4COCCO4)n3)c2)n1", "stereo": "stereo not drawn", "percent effect": 9.519}
{"compound": "O=C(c1cccnc1SCc1ccccc1)N1CCOCC1", "percent effect": 15.89}
{"compound": "Cn1cc(CN2CCCC3(CCN(C(=O)c4cnccn4)C3)C2)cn1.O=C(O)C(F)(F)F.O=C(O)C(F)(F)F", "stereo": "stereo not drawn", "percent effect": -6.173}
{"compound": "O=S(=O)(NC1CCCN(c2ncccn2)C1)N1CCCCCC1", "stereo": "stereo not drawn", "percent effect": -2.512}
{"compound": "Cc1ccc(NC(=O)CC2Cn3ncnc3NC2=O)cc1C", "stereo": "stereo not drawn", "percent effect": -1.45}
{"compound": "COc1ccc(CN2CCN(C(C)=O)CC3(CC(=O)N(C)C3)C2)cc1.O=C(O)C(F)(F)F", "stereo": "stereo not drawn", "percent effect": 4.013}

Source: ChEMBL document CHEMBL3988442, “University of Dundee, Small-Polar-MMV Screening Library” (2021).